The list shows a part of the results.
Assays:
Assay in all cases: log2 fold change, soluble protein after heating vs DMSO (PISA); higher = thermal stabilisation; K562 lysate, 10 uM; active = over 0.2 and 3.5 SD of the protein, either way, in both replicates (recomputed)
erlotinib = compound: C#Cc1cccc(Nc2ncnc3cc(OCCOC)c(OCCOC)cc23)c1 [erlotinib]
Outline: (§1)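 The values are log-two fold changes in thermal stability compared with solvent controls and come from duplicates. They were obtained by TMTpro 16plex LC-MS/MS, with channel sums equalised, on the supernatant after 21,000xg for 90 min. That supernatant came from crude K562 extract at 1 mg/mL protein treated with 10 μM compound for 30 min, heated for 3 min across 48°C-58°C, pooled and brought to 0.5% NP-40 at 4°C.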

Protein sequences, listed by entry. Tags and fused reporters are not part of them. Lines headed by an entry give the natural chain unless they say otherwise; changes in a name come on top.
UniProt Q9NUQ7: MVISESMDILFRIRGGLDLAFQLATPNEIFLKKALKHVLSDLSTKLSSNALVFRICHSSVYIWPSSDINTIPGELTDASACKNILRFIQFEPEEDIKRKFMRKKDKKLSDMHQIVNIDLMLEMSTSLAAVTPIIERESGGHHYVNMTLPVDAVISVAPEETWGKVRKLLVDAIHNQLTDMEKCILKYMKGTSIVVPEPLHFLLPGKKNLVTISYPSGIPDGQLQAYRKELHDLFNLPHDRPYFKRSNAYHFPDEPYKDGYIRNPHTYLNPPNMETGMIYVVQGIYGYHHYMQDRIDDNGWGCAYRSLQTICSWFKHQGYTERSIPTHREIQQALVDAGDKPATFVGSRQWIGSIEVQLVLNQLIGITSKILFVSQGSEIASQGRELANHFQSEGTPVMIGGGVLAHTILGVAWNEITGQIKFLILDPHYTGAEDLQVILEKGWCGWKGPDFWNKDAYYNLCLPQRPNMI
UniProt O14957: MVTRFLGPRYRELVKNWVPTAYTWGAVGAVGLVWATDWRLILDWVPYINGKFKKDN
UniProt P40337, whole entry, looked up: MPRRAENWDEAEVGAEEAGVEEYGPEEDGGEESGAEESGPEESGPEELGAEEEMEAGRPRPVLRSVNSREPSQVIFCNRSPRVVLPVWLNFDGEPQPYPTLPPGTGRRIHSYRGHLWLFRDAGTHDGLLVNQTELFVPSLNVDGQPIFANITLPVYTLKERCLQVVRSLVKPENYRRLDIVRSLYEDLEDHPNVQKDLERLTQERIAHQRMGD
UniProt Q6UW78: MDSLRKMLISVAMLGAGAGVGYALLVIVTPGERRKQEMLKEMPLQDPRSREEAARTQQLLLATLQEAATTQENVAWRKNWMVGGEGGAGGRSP
UniProt Q9H1C4: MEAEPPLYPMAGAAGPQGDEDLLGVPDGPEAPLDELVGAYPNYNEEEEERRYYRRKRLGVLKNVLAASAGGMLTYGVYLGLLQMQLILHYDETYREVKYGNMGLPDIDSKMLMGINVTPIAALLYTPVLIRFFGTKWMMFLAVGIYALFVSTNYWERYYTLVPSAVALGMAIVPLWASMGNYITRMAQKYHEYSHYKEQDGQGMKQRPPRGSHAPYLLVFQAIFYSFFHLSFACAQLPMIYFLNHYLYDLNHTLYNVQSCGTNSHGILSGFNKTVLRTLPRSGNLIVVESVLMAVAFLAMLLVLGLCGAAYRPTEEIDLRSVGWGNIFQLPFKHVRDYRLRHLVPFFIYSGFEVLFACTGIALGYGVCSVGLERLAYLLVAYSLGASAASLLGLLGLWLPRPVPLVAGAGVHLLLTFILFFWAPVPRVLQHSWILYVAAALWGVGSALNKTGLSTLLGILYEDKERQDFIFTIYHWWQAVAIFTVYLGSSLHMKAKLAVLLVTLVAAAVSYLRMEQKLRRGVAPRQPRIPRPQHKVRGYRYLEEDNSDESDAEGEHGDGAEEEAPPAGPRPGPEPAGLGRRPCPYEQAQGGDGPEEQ
UniProt Q15836, whole entry, looked up: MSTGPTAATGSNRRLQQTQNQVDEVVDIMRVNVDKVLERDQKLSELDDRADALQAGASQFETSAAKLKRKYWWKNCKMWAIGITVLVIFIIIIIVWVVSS
UniProt Q93008, whole entry, looked up: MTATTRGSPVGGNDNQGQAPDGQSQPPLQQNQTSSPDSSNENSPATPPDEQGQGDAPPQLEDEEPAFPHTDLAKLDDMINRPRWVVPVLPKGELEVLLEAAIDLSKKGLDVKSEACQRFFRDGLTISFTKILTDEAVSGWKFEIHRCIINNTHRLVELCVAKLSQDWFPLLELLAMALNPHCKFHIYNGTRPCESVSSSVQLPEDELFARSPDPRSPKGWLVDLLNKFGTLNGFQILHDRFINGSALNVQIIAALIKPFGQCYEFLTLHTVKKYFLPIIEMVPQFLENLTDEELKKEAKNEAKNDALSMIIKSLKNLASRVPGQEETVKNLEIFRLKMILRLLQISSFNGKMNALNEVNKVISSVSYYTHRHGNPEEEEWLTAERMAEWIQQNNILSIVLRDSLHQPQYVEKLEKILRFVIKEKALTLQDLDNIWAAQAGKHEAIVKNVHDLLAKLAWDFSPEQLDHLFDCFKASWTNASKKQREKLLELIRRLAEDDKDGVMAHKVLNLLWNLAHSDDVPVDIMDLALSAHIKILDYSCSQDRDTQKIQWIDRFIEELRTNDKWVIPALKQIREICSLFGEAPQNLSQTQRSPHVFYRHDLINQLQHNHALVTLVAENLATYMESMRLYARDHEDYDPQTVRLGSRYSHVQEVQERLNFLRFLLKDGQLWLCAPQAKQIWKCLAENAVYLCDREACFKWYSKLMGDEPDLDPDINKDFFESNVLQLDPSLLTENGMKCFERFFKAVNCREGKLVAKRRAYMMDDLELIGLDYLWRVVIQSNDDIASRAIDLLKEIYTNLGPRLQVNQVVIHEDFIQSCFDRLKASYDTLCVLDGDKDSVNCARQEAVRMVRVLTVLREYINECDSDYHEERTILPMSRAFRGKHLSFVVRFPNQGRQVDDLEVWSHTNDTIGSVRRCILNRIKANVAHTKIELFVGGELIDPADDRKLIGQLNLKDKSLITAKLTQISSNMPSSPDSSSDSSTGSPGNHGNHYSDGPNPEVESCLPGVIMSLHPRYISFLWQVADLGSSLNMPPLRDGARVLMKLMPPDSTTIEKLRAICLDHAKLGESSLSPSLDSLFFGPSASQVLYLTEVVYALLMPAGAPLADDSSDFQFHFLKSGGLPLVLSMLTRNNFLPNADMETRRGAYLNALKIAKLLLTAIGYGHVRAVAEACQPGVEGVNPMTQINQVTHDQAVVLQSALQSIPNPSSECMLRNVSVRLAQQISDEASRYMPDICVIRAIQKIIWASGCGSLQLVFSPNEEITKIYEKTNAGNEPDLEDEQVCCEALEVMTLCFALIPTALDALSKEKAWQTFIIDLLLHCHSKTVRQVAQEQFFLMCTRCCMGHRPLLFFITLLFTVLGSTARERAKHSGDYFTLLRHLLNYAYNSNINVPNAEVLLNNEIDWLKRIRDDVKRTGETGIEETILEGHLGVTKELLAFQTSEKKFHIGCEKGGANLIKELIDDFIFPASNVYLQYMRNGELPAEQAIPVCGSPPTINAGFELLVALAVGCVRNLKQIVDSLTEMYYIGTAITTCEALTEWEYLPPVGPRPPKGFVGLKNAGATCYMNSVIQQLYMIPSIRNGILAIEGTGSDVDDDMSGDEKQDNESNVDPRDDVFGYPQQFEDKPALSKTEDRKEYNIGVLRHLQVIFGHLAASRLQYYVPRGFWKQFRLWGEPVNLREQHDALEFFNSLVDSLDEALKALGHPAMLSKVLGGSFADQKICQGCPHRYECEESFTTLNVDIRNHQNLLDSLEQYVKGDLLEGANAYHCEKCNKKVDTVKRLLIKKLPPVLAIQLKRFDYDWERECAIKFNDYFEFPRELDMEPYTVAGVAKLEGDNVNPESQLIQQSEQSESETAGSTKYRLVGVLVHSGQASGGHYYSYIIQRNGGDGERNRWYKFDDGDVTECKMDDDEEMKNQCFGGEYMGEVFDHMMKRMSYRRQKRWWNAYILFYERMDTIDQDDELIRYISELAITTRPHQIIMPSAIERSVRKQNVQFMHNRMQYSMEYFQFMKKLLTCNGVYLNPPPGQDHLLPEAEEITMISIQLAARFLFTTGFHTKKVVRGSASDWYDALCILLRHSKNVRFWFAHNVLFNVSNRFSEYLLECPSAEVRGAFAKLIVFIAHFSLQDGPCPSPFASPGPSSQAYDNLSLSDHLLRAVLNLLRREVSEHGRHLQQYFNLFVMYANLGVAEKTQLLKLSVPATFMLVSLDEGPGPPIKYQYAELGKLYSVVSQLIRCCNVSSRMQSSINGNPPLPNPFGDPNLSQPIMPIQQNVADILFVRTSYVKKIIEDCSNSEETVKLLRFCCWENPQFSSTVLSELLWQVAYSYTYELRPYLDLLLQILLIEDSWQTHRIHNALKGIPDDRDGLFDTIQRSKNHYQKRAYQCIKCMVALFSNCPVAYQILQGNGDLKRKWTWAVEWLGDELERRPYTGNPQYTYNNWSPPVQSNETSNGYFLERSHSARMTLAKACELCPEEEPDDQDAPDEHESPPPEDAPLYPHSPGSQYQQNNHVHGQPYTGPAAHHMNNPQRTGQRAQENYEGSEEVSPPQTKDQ
UniProt O94966: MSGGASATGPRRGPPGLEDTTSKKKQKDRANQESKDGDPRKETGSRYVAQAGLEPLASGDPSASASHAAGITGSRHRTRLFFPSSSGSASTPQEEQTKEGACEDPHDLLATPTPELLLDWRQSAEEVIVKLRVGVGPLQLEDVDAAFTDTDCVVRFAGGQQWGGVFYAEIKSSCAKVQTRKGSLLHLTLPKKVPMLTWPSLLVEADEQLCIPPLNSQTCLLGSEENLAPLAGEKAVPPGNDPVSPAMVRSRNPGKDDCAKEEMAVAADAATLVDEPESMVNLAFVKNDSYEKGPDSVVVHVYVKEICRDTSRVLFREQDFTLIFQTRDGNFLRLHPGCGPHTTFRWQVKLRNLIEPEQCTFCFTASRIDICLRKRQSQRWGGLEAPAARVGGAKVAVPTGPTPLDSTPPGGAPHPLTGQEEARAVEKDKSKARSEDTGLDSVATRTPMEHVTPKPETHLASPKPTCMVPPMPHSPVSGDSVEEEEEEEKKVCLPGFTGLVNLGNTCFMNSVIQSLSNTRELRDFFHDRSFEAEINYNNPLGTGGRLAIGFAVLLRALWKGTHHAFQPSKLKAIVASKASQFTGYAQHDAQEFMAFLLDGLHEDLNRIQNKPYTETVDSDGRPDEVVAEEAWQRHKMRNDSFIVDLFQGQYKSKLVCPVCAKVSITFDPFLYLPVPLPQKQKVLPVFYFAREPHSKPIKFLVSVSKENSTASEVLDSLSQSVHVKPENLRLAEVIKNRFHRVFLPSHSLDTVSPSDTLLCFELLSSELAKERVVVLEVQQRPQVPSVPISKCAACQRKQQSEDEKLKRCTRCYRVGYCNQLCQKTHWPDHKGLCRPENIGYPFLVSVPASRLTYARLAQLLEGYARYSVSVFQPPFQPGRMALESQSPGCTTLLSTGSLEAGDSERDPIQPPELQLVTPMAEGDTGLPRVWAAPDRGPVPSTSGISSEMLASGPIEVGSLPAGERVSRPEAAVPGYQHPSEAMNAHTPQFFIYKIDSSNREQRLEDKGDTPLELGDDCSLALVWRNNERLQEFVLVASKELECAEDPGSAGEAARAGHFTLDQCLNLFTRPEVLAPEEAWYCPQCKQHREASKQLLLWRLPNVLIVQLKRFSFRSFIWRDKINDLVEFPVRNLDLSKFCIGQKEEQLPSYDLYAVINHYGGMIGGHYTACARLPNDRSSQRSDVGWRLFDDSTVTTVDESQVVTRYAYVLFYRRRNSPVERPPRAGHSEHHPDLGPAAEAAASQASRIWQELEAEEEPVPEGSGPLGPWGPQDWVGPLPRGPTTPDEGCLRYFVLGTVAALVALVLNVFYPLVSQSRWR
UniProt P18206: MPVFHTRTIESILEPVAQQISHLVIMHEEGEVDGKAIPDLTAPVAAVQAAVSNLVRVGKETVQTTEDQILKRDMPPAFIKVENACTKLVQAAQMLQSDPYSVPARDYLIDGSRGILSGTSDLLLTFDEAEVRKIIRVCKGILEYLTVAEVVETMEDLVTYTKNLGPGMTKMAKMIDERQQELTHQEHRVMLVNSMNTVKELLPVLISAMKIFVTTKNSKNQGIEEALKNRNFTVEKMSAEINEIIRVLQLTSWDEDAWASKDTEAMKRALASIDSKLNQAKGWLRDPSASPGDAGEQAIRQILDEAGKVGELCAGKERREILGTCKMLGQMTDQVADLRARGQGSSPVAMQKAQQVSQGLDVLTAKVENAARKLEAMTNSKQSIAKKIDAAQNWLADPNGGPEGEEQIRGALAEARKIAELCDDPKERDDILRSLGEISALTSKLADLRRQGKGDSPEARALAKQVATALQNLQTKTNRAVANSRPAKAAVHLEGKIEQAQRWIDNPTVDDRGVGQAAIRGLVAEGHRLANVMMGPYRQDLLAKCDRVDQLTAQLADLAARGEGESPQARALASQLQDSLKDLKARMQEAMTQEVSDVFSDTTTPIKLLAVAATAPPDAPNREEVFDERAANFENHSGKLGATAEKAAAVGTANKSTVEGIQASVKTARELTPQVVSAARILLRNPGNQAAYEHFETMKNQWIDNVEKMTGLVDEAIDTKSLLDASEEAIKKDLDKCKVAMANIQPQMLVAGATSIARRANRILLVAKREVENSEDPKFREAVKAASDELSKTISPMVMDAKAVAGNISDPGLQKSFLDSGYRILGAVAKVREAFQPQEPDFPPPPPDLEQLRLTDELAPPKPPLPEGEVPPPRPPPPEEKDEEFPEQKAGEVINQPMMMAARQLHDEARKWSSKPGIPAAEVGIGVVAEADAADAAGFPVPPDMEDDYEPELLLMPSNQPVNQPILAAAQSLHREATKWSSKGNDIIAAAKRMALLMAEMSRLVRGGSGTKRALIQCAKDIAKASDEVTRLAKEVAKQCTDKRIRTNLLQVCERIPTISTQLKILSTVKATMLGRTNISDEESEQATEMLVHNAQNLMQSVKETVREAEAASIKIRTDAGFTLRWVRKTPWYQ

[1] = compound: C/C(=N\NC(=O)C1=CC(=CC=C1)S(=O)(=O)N2CCOCC2)/C3=C(C=CC(=C3)Cl)O
Outline: as §1

[2] = compound: C1=CC(=CC=C1C2=NC3=C(N2)C=C(C=C3)C(=O)N)OC4=CC=C(C=C4)Cl
Outline: as §1

[3] = compound: C1=CC2=C(C=CC(=C2)/C=C\3/C(=O)NC(=NCC4=CC=CS4)S3)N=C1
Outline: as §1

[4] = compound: C1=CC2=NC=CN=C2C=C1/C=C/3\C(=O)NC(=O)S3
Outline: as §1

[5] = compound: C1=CC=C(C=C1)C2=NC(=C(N2)C3=CC=NC=C3)C4=CC(=C(C=C4)Cl)O
Outline: as §1

[6] = compound: C1=CC=C2C(=C1)C3=NNC4=CC=CC(=C43)C2=O
Outline: as §1

[7] = compound: C1CCN(C1)C(=O)NC2=CC=CC(=C2)NC3=NC=C(C(=N3)NCCC4=CN=CN4)Br
Outline: as §1

[8] = compound: C1CN(CCC1(CC2=CC=C(C=C2)Cl)N)C3=NC=NC4=C3C=CN4
Outline: as §1

IRAK-1-4 Inhibitor I = compound: C1COCCN1CCN2C3=CC=CC=C3N=C2NC(=O)C4=CC(=CC=C4)[N+](=O)[O-] [IRAK-1-4 Inhibitor I]
Outline: as §1

Target | log2 fold change (erlotinib) | log2 fold change [1] | log2 fold change [2] | log2 fold change [3] | log2 fold change [4] | log2 fold change [5] | log2 fold change [6] | log2 fold change [7] | log2 fold change [8] | log2 fold change (IRAK-1-4 Inhibitor I)
UXS1 isoform 2 (UniProt Q8NBZ7) | inactive: 0.045 | inactive: 0.099 | inactive: -0.034 | inactive: -0.019 | inactive: 0.107 | inactive: 0.04 | inactive: -0.047 | inactive: -0.025 | inactive: -0.08 | inactive: 0.046
UFSP2 (UniProt Q9NUQ7) | inactive: -0.04 | inactive: -0.034 | inactive: 0.028 | inactive: 0.098 | inactive: -0.015 | inactive: -0.042 | inactive: -0.055 | inactive: -0.026 | inactive: -0.037 | inactive: 0.023
VDAC2 (UniProt Q5JSD1) | inactive: 0.058 | inactive: 0 | inactive: 0.057 | inactive: 0.074 | inactive: 0.032 | inactive: -0.001 | inactive: -0.025 | inactive: -0.032 | inactive: 0.029 | inactive: 0.033
UQCR11 (UniProt O14957) | inactive: 0.056 | inactive: -0.045 | inactive: -0.055 | inactive: 0.009 | inactive: 0.271 | inactive: 0.004 | inactive: -0.039 | inactive: -0.014 | inactive: 0.038 | inactive: -0.016
USP39 (UniProt Q53GS9) | inactive: -0.001 | inactive: 0.009 | inactive: -0.004 | inactive: -0.018 | inactive: -0.027 | inactive: -0.016 | inactive: -0.007 | inactive: -0.001 | inactive: 0.012 | inactive: 0.005
URI1 (UniProt O94763) | inactive: -0.023 | inactive: -0.055 | inactive: 0.035 | inactive: -0.056 | inactive: -0.022 | inactive: -0.012 | inactive: -0.021 | inactive: 0.025 | inactive: -0.023 | inactive: 0.007
UTP15 (UniProt Q8TED0) | inactive: -0.012 | inactive: -0.001 | inactive: -0.042 | inactive: 0.018 | inactive: 0 | inactive: -0.036 | inactive: -0.052 | inactive: -0.006 | inactive: 0.035 | inactive: 0.04
VHL (UniProt P40337) | inactive: 0.088 | inactive: 0.034 | inactive: -0.016 | inactive: 0.059 | inactive: 0.032 | inactive: -0.09 | inactive: -0.003 | inactive: -0.007 | inactive: -0.107 | inactive: 0.02
VAPA (UniProt Q9P0L0) | inactive: -0.049 | inactive: 0.061 | inactive: -0.101 | inactive: 0.006 | inactive: 0.002 | inactive: 0.025 | inactive: -0.072 | inactive: 0.043 | inactive: -0.037 | inactive: -0.091
UQCC3 (UniProt Q6UW78) | inactive: 0.09 | inactive: 0.063 | inactive: -0.085 | inactive: 0.19 | inactive: -0.026 | inactive: -0.03 | inactive: -0.336 | inactive: 0.02 | inactive: -0.25 | inactive: -0.192
UNC93B1 (UniProt Q9H1C4) | inactive: -0.086 | inactive: -0.057 | inactive: 0.055 | inactive: -0.036 | inactive: 0.18 | inactive: 0.031 | inactive: 0.012 | inactive: -0.057 | inactive: -0.103 | inactive: 0.052
USP25 (UniProt Q9UHP3) | inactive: -0.02 | inactive: 0.022 | inactive: -0.002 | inactive: 0.018 | inactive: -0.008 | inactive: 0.003 | inactive: -0.016 | inactive: -0.019 | inactive: 0 | inactive: -0.009
VAMP3 (UniProt Q15836) | inactive: -0.007 | inactive: -0.034 | inactive: 0.073 | inactive: 0.002 | inactive: 0.015 | inactive: -0.044 | inactive: -0.105 | inactive: 0.018 | inactive: -0.025 | inactive: 0.067
UTP20 (UniProt O75691) | inactive: 0.078 | inactive: -0.182 | inactive: -0.098 | inactive: -0.041 | inactive: 0.027 | inactive: 0.035 | inactive: 0.013 | inactive: -0.004 | inactive: 0.077 | inactive: 0.006
USP9X (UniProt Q93008) | inactive: 0.034 | inactive: 0.013 | inactive: -0.008 | inactive: 0.015 | inactive: 0.014 | inactive: 0.003 | inactive: -0.019 | inactive: -0.005 | inactive: -0.013 | inactive: 0.022
VAV3 isoform 4 (UniProt Q9UKW4) | inactive: 0.035 | inactive: 1.07 | inactive: -0.029 | inactive: -0.144 | inactive: 0.117 | inactive: 0.012 | inactive: -0.133 | inactive: 0.148 | inactive: -0.08 | inactive: -0.017
UMPS (UniProt P11172) | inactive: -0.005 | inactive: -0.008 | inactive: 0 | inactive: 0.026 | inactive: 0.028 | inactive: 0.003 | inactive: 0.004 | inactive: 0.007 | inactive: -0.013 | inactive: -0.023
VAT1 (UniProt Q99536) | inactive: -0.01 | inactive: -0.012 | inactive: 0.053 | inactive: -0.001 | inactive: -0.002 | inactive: 0.003 | inactive: 0.012 | inactive: 0.015 | inactive: 0.012 | inactive: 0.009
USE1 (UniProt Q9NZ43) | inactive: 0.019 | active: 0.31 | inactive: -0.026 | inactive: -0.062 | inactive: 0 | inactive: -0.038 | inactive: -0.06 | inactive: 0.019 | inactive: 0.025 | inactive: 0.056
VDAC1 (UniProt P21796) | inactive: -0.001 | inactive: -0.007 | inactive: -0.001 | inactive: -0.013 | inactive: 0.016 | inactive: 0 | inactive: 0.021 | inactive: 0.009 | inactive: 0.004 | inactive: 0.026
USP19 isoform 6 (UniProt O94966) | inactive: -0.003 | inactive: 0.021 | inactive: 0.016 | inactive: -0.033 | inactive: 0.049 | inactive: 0.012 | inactive: -0.012 | inactive: -0.011 | inactive: -0.001 | inactive: 0.029
VCL (UniProt P18206) | inactive: -0.019 | inactive: -0.03 | inactive: 0.005 | inactive: -0.004 | inactive: -0.002 | inactive: -0.011 | inactive: 0.012 | inactive: 0.011 | inactive: -0.008 | inactive: 0.006
UPF2 (UniProt Q9HAU5) | inactive: -0.002 | inactive: 0.03 | inactive: -0.006 | inactive: 0.005 | inactive: 0 | inactive: 0.001 | inactive: -0.006 | inactive: 0 | inactive: -0.003 | inactive: 0.011
USP16 (UniProt Q9Y5T5) | inactive: -0.002 | inactive: -0.01 | inactive: -0.01 | inactive: -0.002 | inactive: 0.011 | inactive: 0.036 | inactive: -0.016 | inactive: -0.028 | inactive: -0.005 | inactive: -0.033
UQCRFS1 (UniProt P47985) | inactive: 0.001 | inactive: -0.019 | inactive: -0.004 | inactive: -0.035 | inactive: -0.018 | inactive: -0.004 | inactive: 0.031 | inactive: 0.078 | inactive: 0.015 | inactive: -0.004
ULK3 isoform 4 (UniProt Q6PHR2) | inactive: 0.156 | inactive: 0.149 | inactive: -0.008 | inactive: -0.151 | inactive: -0.053 |  | inactive: 0.177 | inactive: 0.179 | inactive: 0.01 | 
USP11 (UniProt P51784) | inactive: 0.014 | inactive: -0.032 | inactive: -0.012 | inactive: -0.004 | inactive: 0.027 | inactive: 0.019 | inactive: -0.032 | inactive: 0.005 | inactive: 0.039 | inactive: 0.027
VAC14 (UniProt Q08AM6) | inactive: -0.007 | inactive: 0.02 | inactive: -0.004 | inactive: 0.032 | inactive: 0.024 | inactive: -0.006 | inactive: -0.023 | inactive: 0.006 | inactive: 0.015 | inactive: 0.024
UGCG (UniProt Q16739) | inactive: -0.019 | inactive: 0.082 | inactive: 0.15 | inactive: -0.059 | inactive: 0.134 | inactive: 0.003 | inactive: -0.007 |  |  | inactive: 0.003
USP19 isoform 4 (UniProt O94966) | inactive: 0.043 | inactive: -0.046 | inactive: 0.029 | inactive: 0.187 |  | inactive: -0.174 | inactive: -0.232 | inactive: 0.047 | inactive: 0 | inactive: 0.045

Reformatted: results already given.
Target,log2 fold change (erlotinib),log2 fold change [1],log2 fold change [2],log2 fold change [3],log2 fold change [4],log2 fold change [5],log2 fold change [6],log2 fold change [7],log2 fold change [8],log2 fold change (IRAK-1-4 Inhibitor I)
UGCG (UniProt Q16739),inactive: -0.019,inactive: 0.082,inactive: 0.15,inactive: -0.059,inactive: 0.134,inactive: 0.003,inactive: -0.007,,,inactive: 0.003
USP19 isoform 4 (UniProt O94966),inactive: 0.043,inactive: -0.046,inactive: 0.029,inactive: 0.187,,inactive: -0.174,inactive: -0.232,inactive: 0.047,inactive: 0,inactive: 0.045

Source: the supplement of paper PMC10849652
